Percent effect of library compounds

Amino acid sequences for entries named in this document (tags omitted). Residues count along the entry.
UniProt Q8IDJ8, 1-583: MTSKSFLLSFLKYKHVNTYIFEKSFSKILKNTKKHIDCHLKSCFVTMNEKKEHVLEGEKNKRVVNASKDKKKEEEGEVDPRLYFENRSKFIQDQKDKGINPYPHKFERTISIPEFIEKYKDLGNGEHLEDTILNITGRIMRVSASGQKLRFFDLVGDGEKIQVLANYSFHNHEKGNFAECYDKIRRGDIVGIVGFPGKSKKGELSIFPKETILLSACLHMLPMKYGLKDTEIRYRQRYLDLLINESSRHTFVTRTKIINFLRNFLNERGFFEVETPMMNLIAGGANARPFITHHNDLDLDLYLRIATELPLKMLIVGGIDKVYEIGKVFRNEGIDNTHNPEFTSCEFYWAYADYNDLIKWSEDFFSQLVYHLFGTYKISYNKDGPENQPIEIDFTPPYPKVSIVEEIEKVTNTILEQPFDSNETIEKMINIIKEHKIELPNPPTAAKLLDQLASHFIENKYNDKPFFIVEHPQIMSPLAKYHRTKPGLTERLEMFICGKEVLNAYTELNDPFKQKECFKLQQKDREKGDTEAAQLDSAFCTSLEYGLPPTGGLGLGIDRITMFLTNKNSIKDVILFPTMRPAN
UniProt Q4DA54, 1-478: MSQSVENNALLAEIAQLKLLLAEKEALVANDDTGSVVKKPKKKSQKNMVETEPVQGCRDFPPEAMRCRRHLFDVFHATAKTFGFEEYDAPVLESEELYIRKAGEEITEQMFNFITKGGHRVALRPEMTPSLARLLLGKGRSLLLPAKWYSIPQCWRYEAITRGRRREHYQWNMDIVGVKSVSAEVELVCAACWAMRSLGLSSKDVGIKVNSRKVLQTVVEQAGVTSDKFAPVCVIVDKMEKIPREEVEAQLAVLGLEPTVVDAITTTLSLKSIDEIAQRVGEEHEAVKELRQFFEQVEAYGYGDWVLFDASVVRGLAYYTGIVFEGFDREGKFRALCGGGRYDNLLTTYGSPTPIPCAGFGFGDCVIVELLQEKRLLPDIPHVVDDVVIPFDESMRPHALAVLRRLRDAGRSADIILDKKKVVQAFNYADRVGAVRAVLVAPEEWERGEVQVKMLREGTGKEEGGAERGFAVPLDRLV
UniProt I6X8D2, whole entry: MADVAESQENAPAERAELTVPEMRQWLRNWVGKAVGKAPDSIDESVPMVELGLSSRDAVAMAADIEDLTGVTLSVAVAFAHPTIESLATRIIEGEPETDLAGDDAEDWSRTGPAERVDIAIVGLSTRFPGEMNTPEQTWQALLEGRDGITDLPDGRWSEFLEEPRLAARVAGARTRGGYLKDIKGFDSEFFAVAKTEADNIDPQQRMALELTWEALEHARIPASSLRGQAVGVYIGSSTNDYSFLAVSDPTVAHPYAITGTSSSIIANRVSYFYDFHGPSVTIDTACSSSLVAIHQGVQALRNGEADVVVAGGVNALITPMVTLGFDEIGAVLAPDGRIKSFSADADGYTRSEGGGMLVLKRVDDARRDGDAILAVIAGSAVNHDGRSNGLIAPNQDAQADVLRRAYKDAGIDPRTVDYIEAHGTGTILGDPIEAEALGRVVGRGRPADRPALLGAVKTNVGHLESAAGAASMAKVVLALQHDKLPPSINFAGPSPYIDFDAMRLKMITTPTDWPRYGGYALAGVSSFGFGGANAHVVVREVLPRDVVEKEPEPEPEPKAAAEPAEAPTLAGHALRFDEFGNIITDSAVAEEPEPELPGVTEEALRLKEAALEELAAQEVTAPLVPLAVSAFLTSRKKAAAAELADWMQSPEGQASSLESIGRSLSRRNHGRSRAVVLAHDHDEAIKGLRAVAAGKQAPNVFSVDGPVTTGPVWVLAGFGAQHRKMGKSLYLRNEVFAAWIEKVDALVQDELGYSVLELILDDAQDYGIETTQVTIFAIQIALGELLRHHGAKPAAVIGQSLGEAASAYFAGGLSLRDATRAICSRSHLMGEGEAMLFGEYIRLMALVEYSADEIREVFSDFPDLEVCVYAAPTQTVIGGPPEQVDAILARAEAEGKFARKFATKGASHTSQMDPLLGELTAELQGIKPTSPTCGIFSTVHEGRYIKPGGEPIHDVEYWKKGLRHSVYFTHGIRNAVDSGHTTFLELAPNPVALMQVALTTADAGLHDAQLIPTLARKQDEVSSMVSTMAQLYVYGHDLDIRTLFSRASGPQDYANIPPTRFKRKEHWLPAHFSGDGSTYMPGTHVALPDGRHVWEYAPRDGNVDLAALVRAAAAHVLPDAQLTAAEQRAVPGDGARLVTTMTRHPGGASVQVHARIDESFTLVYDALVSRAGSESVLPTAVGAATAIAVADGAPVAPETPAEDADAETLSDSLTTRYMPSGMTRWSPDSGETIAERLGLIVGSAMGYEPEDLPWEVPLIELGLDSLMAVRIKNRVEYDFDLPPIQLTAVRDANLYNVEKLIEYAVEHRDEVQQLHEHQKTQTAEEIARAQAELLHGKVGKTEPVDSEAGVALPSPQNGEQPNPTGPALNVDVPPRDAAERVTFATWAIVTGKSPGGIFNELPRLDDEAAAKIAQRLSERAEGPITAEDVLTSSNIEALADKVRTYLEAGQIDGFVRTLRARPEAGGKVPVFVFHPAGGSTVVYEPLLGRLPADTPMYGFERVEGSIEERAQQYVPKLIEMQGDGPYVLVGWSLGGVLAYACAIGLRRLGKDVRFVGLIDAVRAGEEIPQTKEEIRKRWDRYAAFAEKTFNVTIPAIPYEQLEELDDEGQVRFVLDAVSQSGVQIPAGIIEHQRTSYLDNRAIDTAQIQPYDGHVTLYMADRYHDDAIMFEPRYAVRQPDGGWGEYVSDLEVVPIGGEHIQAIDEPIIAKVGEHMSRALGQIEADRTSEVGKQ

Measurements from “University of Dundee, Small-Polar-MMV Screening Library” (2021), ChEMBL document CHEMBL3988442.

PfKRS1: 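Lysine-tRNA ligase, Plasmodium falciparum 3D7 (UniProt Q8IDJ8). Enzyme assay of the cytosolic lysyl-tRNA synthetase in 384-well plates, read by luminescence. Tested at 30 µM. Higher reads as stronger inhibition, judged from the few compounds that gave an IC50. About 69,000 compounds were tested under these conditions; 0.071% (about 49) showed 50% or more at least once.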
TcHisRS: 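Histidine-tRNA ligase, Trypanosoma cruzi CL Brener (UniProt Q4DA54). Enzyme assay of histidyl-tRNA synthetase; the read-out is not stated. Compounds at 30 µM. The record gives no direction; compounds that gave an IC50 in retests scored well above the rest, so higher reads as stronger inhibition. About 69,000 compounds were tested under these conditions; 0.045% (about 31) showed 50% or more at least once.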
Pks13 thioesterase: 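Polyketide synthase Pks13, Mycobacterium tuberculosis (UniProt I6X8D2). Enzyme assay of the thioesterase domain of polyketide synthase 13; the read-out is not stated. Compounds at 30 µM. The record gives no direction; the compounds picked for IC50 retests had high values, so higher reads as stronger inhibition. Of about 67,000 compounds tested this way, about 300 (0.46%) reached 50% or more in at least one test.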

Each number is a percent effect as filed.
The controls that fix the scale are not given in the record; negative values are as filed.
Compounds were drawn at random from those tested, without regard to their results.

Compound: c1cc(-c2cnccn2)cc(-c2ccn(CCCN3CCCCC3)n2)c1
PfKRS1: -4.638
TcHisRS: 3.488
Pks13 thioesterase: -28.41

Compound: CN(C)C1CCCN(C(=O)CCc2csc(N)n2)CC1 (centres undefined)
PfKRS1: 10.37
TcHisRS: -4.082
Pks13 thioesterase: -9.223

Compound: Cc1ccc(NC(C)C(=O)NCc2cccs2)cc1Cl (centres undefined)
PfKRS1: -0.4722
TcHisRS: 3.093
Pks13 thioesterase: 4.373

Compound: CC1CCN(c2nc3c(cnn3-c3ccccc3)c(=O)[nH]2)CC1
PfKRS1: 3.048
TcHisRS: -8.671
Pks13 thioesterase: -33.14

Compound: CCC(=O)NC1CCCN(Cn2nc(C(C)(C)C)ccc2=O)C1 (centres undefined)
PfKRS1: 6.041
TcHisRS: 3.158
Pks13 thioesterase: -21.24

Compound: COCCCN(CCOC)C(=O)Nc1ccccc1-n1cccn1
PfKRS1: 3.663
TcHisRS: 1.508
Pks13 thioesterase: -2.835

Compound: CC(=O)N1CCc2c(nc(N(C)C)nc2NCc2cccs2)C1
PfKRS1: 6.845
TcHisRS: 4.598
Pks13 thioesterase: -53.48

Compound: COC(=O)c1ccc(NC(C)c2ccc3c(c2)CC(=O)N3)nn1 (centres undefined)
PfKRS1: 4.013
TcHisRS: 10.1
Pks13 thioesterase: -24.42

Compound: Cc1ccc2c(c1)SCC(=O)N2CC(=O)N1CCCC1c1cc(C)on1 (centres undefined)
PfKRS1: -1.393
TcHisRS: 3.191
Pks13 thioesterase: -27.1

Compound: FC(F)(F)Oc1cccc(CNC[C@H]2Cn3ccnc3CO2)c1
PfKRS1: 6.81
TcHisRS: 7.609
Pks13 thioesterase: -34.38

Compound: CC(=O)N1CCCN(C(=O)C(C)n2cncn2)CC1 (centres undefined)
PfKRS1: 0.6337
TcHisRS: 2.579

Compound: COc1ccc2nc(NC(=O)c3c(C(=O)O)cnn3C)sc2c1
PfKRS1: 0.4706
TcHisRS: 5.941
Pks13 thioesterase: -9.806

Compound: COc1ccccc1N1CCN(C(=O)COc2c(C)occc2=O)CC1
PfKRS1: 3.005
TcHisRS: -1.22
Pks13 thioesterase: -10.16

Compound: CC(Cn1cccn1)NC(=O)C1=Cc2ccccc2OC1 (centres undefined)
PfKRS1: 4.355
TcHisRS: 2.717
Pks13 thioesterase: -25.48

Compound: COCc1nc2n(n1)CCCC2Nc1nc(C(C)C)ns1 (centres undefined)
PfKRS1: 3.405
TcHisRS: 9.195

Compound: Cn1ncc2c1C(COCC1CC1)CN(Cc1ccoc1)C2 (centres undefined)
PfKRS1: -0.0815
TcHisRS: 2.762
Pks13 thioesterase: -27.25

Compound: CCc1nnc(C(C)N2CCc3cncnc3C2)o1 (centres undefined)
PfKRS1: 0.9185
TcHisRS: 12.71
Pks13 thioesterase: -17.39

Compound: CCc1nc(C2CCCN2C(=O)c2ccc3c(c2)nc(C)n3C)no1 (centres undefined)
PfKRS1: 4.558
TcHisRS: 5.66
Pks13 thioesterase: -13.31

Compound: CCn1cc2c(n1)C(COC)CN(C(=O)COc1ccccc1C)C2 (centres undefined)
PfKRS1: 2.446
TcHisRS: 1.639
Pks13 thioesterase: -21.62

Compound: Cc1oncc1C(=O)N1CCC2(CCN(Cc3cccc(F)c3)C2=O)C1 (centres undefined)
PfKRS1: -22.41
TcHisRS: 9.045
Pks13 thioesterase: -3.012

Compound: CCN(C(=O)NCc1ncc(C)c(OC)c1C)C(C)c1cccnc1 (centres undefined)
PfKRS1: 6.173
TcHisRS: 3.448
Pks13 thioesterase: -8.046

Compound: Cc1nn(C)c(Cl)c1C1CCCN1C(=O)c1ccc(O)nc1 (centres undefined)
PfKRS1: -1.587
TcHisRS: 1.744
Pks13 thioesterase: -20.14

Compound: CCCNS(=O)(=O)c1cnccc1N1CCN(C(C)C)CC1
PfKRS1: 6.212
TcHisRS: 6.14
Pks13 thioesterase: -20.99

Compound: CCC(=O)N1CCC2(CC1)CN(C(C)=O)c1ccc(C)cc12
PfKRS1: 0.7301
TcHisRS: 2.299
Pks13 thioesterase: -14.71

Compound: CCCS(=O)(=O)N1CCN(Cc2ccco2)CC1
PfKRS1: 3.879
TcHisRS: 2.308
Pks13 thioesterase: -7.617

Compound: CS(=O)(=O)NC[C@]12COC[C@H]1CN(C(=O)C1CC(F)(F)C1)C2
PfKRS1: 3.824
TcHisRS: -64.55
Pks13 thioesterase: -8.642

Compound: CN(C)C(C(=O)NCC1(O)CCCCC1)c1cccc(F)c1 (centres undefined)
PfKRS1: 5.6
TcHisRS: 8.152
Pks13 thioesterase: -49.66

Compound: Cc1ccc(N2CC3(COCCN(Cc4ccccn4)C3)OCC2=O)s1 (centres undefined)
PfKRS1: -0.7933
TcHisRS: 6.452
Pks13 thioesterase: -13.26

Compound: CC(C)c1cc(C(=O)N2CCN(c3ccncc3)CC2)n(C)n1
PfKRS1: 0.2363
TcHisRS: 7.143
Pks13 thioesterase: -31.56

Compound: CCOCCNC(=O)C(CCSC)NC(=O)c1ccc2ccccc2n1 (centres undefined)
PfKRS1: 4.836
TcHisRS: 5.202

Compound: Cc1nccn1CCC1CCN(c2ncccn2)CC1
PfKRS1: 2.737
TcHisRS: -0.9662
Pks13 thioesterase: -3.899

Compound: CC(=O)N1CCCC1c1nnc2n1CCCCC2 (centres undefined)
PfKRS1: 6.346
TcHisRS: 2.674
Pks13 thioesterase: -8.56

Compound: CN(C)CC1CN(Cc2cccc(C#N)c2)Cc2nccn2C1 (centres undefined)
PfKRS1: 6.62
TcHisRS: 18.09
Pks13 thioesterase: -11.92

Compound: CC(NC(=O)NCCNc1cnccn1)c1cccs1 (centres undefined)
PfKRS1: 5.646
TcHisRS: 0
Pks13 thioesterase: 17.54

Repeated from the top, 3 entries:

| Compound | PfKRS1 | TcHisRS | Pks13 thioesterase |
|---|---|---|---|
| `c1cc(-c2cnccn2)cc(-c2ccn(CCCN3CCCCC3)n2)c1` | -4.638 | 3.488 | -28.41 |
| `CN(C)C1CCCN(C(=O)CCc2csc(N)n2)CC1` (centres undefined) | 10.37 | -4.082 | -9.223 |
| `Cc1ccc(NC(C)C(=O)NCc2cccs2)cc1Cl` (centres undefined) | -0.4722 | 3.093 | 4.373 |